In the supplement of paper PMC11732987, “Enantioselective OTUD7B fragment discovery through chemoproteomics screening and high-throughput optimisation” (Communications Chemistry, 2025):
This is one part of the list. The data scatter; read single values as rough.

Protein sequences, listed by entry. Tags and fused reporters are not part of them. Lines headed by an entry give the natural chain unless they say otherwise; changes in a name come on top. Residues count along the entry.
UniProt Q9UQ35: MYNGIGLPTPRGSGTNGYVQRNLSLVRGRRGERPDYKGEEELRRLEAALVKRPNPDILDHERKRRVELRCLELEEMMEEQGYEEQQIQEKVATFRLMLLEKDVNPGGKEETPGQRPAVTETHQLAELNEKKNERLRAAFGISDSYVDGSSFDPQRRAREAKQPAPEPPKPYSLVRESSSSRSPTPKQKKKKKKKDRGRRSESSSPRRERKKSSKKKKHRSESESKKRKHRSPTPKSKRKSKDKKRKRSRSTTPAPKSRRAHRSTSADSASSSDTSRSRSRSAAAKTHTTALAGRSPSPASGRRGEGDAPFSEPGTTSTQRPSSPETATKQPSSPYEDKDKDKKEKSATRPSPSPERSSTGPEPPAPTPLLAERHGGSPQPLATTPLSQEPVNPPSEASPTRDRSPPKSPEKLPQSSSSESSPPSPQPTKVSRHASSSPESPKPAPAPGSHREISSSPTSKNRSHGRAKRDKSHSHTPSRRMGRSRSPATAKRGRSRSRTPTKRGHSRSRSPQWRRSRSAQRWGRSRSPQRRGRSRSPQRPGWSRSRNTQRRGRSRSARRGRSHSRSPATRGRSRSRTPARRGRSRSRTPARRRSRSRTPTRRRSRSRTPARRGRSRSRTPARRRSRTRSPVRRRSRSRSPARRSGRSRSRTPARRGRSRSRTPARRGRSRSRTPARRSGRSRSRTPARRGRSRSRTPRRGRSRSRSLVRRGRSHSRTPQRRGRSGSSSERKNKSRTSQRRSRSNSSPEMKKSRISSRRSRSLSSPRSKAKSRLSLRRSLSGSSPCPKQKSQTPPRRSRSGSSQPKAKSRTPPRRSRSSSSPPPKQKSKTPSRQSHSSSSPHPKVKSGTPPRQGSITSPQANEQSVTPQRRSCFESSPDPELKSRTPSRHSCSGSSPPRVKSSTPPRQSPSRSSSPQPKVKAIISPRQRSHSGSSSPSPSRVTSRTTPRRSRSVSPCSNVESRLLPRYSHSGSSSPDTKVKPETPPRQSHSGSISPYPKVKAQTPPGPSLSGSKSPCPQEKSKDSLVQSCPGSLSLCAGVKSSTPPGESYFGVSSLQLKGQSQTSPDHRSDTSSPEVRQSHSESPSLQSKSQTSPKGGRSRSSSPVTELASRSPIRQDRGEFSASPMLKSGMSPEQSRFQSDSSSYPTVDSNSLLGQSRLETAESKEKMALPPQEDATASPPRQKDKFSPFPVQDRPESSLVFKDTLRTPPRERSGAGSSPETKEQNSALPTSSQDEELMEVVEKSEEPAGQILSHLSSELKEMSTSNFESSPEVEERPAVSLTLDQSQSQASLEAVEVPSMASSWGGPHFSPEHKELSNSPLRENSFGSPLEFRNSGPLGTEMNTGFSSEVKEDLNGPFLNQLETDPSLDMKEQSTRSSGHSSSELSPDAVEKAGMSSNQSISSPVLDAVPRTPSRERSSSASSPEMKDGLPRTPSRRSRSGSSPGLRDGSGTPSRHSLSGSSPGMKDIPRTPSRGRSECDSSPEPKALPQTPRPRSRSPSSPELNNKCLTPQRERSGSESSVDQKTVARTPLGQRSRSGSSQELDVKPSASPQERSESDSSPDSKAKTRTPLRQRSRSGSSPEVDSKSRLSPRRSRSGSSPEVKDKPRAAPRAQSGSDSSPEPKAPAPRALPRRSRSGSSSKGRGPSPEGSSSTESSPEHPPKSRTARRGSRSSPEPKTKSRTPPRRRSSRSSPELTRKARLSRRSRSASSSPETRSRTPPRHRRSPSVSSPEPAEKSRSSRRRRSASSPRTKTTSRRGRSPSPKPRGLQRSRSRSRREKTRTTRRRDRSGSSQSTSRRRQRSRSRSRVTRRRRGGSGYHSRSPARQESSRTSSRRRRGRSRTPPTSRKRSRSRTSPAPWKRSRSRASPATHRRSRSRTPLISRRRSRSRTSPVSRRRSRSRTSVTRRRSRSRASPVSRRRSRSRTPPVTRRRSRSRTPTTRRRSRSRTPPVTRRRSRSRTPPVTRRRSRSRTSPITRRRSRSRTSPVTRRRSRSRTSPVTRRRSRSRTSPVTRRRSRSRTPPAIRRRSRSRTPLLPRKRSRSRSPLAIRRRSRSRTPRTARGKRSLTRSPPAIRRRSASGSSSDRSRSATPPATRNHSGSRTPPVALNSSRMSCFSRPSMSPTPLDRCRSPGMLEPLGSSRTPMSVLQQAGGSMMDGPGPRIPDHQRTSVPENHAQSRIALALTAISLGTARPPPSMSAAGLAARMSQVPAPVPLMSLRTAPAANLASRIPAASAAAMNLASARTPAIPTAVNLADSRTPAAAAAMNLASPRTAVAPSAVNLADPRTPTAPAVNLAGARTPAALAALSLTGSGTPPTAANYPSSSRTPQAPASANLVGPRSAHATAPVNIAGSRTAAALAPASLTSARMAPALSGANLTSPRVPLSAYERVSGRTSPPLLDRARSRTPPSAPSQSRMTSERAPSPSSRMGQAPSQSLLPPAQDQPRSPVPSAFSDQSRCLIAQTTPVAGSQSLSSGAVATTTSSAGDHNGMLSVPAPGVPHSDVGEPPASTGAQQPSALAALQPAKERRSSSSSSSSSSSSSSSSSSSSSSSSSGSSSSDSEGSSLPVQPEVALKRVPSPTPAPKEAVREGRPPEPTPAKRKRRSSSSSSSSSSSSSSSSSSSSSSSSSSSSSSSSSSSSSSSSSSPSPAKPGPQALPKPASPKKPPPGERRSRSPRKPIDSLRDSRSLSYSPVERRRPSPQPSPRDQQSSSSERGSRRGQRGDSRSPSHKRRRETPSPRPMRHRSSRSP
UniProt Q9P246, 695-716: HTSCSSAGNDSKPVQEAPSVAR
UniProt Q9P246, whole entry, looked up: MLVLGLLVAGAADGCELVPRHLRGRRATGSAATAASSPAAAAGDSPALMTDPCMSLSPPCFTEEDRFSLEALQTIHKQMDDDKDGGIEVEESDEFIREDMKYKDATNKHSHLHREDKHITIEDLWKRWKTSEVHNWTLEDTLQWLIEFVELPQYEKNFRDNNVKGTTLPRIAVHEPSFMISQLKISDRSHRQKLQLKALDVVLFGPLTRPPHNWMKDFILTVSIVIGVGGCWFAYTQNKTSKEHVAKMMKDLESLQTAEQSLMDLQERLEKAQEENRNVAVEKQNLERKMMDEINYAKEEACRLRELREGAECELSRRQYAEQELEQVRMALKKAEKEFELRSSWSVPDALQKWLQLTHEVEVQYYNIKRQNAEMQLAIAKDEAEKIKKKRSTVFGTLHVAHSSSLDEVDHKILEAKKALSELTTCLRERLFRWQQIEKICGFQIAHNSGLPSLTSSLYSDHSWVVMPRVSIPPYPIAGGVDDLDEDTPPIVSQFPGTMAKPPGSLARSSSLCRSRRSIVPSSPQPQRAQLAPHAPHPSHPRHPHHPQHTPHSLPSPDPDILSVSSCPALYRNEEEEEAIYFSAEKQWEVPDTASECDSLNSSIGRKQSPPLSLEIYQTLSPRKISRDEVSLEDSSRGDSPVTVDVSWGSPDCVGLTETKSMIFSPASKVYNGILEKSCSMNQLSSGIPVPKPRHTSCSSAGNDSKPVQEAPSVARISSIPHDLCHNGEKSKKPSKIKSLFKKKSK
UniProt O15020, whole entry, looked up: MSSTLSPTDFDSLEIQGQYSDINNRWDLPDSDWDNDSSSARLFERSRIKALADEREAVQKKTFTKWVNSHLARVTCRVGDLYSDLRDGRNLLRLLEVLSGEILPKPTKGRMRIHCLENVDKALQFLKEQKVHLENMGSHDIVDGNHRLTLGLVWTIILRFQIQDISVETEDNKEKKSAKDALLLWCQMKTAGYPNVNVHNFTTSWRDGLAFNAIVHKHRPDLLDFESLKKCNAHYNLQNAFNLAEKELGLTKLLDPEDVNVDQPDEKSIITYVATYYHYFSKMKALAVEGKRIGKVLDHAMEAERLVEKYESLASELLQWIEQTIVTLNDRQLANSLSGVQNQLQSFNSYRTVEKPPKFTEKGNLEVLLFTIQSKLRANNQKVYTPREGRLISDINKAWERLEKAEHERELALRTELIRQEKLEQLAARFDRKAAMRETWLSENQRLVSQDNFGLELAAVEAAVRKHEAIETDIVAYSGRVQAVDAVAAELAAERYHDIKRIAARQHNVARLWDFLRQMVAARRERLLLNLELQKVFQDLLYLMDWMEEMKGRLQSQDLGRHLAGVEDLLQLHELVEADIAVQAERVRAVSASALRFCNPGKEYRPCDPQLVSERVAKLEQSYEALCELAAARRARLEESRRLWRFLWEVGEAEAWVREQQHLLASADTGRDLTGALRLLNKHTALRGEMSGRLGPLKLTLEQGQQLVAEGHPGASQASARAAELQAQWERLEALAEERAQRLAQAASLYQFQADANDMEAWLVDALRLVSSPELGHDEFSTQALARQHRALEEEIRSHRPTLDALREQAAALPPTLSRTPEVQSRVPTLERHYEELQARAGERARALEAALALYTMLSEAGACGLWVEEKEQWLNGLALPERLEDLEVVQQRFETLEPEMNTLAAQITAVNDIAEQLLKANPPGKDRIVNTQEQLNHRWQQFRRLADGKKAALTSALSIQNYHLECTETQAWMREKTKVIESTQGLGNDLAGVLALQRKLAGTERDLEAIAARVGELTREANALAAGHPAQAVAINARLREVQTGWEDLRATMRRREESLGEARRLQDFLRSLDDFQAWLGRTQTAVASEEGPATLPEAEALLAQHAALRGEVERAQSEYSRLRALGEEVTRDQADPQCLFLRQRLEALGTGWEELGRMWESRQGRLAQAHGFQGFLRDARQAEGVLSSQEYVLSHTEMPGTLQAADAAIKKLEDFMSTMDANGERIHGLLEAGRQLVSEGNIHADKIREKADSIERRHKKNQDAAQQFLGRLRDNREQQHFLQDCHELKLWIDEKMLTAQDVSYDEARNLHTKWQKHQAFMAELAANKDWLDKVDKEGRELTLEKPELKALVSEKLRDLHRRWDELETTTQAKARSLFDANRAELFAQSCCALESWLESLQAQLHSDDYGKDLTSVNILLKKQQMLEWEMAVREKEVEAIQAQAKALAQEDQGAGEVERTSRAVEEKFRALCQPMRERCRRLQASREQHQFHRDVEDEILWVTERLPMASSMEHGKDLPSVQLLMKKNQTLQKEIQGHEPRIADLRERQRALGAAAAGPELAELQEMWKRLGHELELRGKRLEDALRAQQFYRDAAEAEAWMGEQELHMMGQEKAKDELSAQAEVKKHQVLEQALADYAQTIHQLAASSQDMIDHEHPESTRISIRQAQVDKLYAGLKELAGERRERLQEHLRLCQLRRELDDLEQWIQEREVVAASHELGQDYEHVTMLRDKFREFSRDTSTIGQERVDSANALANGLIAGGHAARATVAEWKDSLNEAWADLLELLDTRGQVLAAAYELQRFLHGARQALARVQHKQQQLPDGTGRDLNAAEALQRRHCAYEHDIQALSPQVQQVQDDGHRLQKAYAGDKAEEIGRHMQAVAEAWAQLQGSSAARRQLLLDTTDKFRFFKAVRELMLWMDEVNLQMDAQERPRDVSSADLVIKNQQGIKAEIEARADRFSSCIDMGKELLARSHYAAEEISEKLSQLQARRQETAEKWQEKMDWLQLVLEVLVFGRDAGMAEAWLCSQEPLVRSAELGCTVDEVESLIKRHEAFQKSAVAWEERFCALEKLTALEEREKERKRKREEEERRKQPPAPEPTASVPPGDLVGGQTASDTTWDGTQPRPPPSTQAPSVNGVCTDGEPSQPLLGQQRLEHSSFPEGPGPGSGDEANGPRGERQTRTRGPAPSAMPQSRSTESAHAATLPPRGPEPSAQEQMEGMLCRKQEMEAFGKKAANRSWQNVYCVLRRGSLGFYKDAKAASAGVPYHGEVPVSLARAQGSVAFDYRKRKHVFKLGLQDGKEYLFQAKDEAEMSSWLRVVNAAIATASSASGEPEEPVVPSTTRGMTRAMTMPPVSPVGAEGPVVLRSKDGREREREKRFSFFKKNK
UniProt Q8N5C6, 142-166: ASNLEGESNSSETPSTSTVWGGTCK
UniProt Q9UHB9: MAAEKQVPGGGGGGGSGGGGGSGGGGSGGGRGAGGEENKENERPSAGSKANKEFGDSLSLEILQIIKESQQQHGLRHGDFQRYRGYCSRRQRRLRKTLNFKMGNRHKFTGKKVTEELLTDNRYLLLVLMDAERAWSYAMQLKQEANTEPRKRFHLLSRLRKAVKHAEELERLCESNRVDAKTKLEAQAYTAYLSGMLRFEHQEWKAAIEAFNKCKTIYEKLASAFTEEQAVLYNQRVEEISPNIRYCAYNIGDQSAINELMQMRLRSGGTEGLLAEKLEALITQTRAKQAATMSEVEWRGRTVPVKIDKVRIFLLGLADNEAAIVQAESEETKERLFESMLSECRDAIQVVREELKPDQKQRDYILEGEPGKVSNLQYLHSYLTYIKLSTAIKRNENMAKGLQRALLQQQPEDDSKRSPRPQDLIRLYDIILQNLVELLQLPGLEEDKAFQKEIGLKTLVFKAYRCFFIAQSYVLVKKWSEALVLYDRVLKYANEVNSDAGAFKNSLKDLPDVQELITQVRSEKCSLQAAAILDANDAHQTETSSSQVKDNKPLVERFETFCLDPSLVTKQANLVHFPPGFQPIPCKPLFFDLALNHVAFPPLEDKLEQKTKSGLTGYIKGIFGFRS
UniProt Q9Y3F4, 320-350: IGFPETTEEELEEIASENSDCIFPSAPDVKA

Key:
[1] = compound: ClCC(=O)N[C@@H]1CCCc2ccccc12; experiment: log2 mean competition ratio of IA-DTB cysteine labelling (DMSO/compound) (log2 ratio); higher = stronger cysteine engagement by compound; conditions: treatment time: 4 h, cell line lysate: HEK293T
Description: (§1)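 IA-DTB competitive cysteine chemoproteomics in HEK293T RIPA lysate. Lysates were treated with compound 29 or 30 at 50 or 200 µM for 4 h, then IA-DTB (500 µM, 1 h), trypsin-digested, NeutrAvidin-enriched and analysed by diaPASEF. Competition ratio = intensity DMSO / intensity compound (n=4 treated, n=64 DMSO); binding: mean log2 CR ≥ 1 and p ≤ 0.05 plus QC filters. Target is the cysteine site.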

[2] = compound: ClCC(=O)N[C@H]1CCCc2ccccc12; experiment: as above; conditions: treatment time: 4 h, cell line lysate: HEK293T
Description: as §1

Target	log2 mean competition ratio ([1]; 50 µM)	log2 mean competition ratio ([1]; 200 µM)	log2 mean competition ratio ([2]; 50 µM)	log2 mean competition ratio ([2]; 200 µM)
STAG2 C535 (UniProt Q8N3U4)	-0.175	-0.11	-0.073	-0.233
SUPT6H C1435 (UniProt Q7KZ85)	0.0168	0.114	-0.11	0.167
STEAP2 C168	-0.185	0.243	-0.0902	0.0567
SYNE2 C1151 (UniProt Q8WXH0)	-0.225	0.0546	-0.0447	-0.112
STAT3 C367 (UniProt P40763)	-0.346	-0.31	-0.595	-0.351
SYK C259 (UniProt P43405)	0.0113	-0.106	0.237	0.0641
SRP9 C48 (UniProt P49458)	0.122	-0.393	0.0755	-0.177
SPRTN C205 (UniProt Q9H040)	-0.0388	-0.0818	-0.0358	-0.231
SRRM2 C956 (UniProt Q9UQ35)	0.158	0.00355	0.0755	0.0665
SYNJ2 C708 (UniProt O15056)	-0.222	-0.177	-0.225	-0.165
STRN4 C713 (UniProt Q9NRL3)	-0.112	0.0707	0.0462	-0.0395
SRCAP C2042 (UniProt Q6ZRS2)	0.309	0.0263	0.602	0.0513
SRSF9 C80 (UniProt Q13242)	-0.0744	0.161	-0.0151	0.213
STAT2 C529 (UniProt P52630)	-0.0139	0.165	0.047	0.0356
SYNE2 C90 (UniProt Q8WXH0)	-0.176	0.298	-0.142	0.175
STXBP2 C365 (UniProt Q15833)	-0.339	-0.225	-0.0085	-0.34
STAG1 C636 (UniProt Q8WVM7)	-0.189	0.0471	-0.376	-0.0725
SYNE2 C1235 (UniProt Q8WXH0)	0.193	0.0708	-0.47	0.128
STON1 C35 (UniProt Q9Y6Q2)	0.393	0.0621	-0.125	0.1
STBD1 C108 (UniProt O95210)	-0.161	0.176	-0.104	0.343
STIM2 C698 (UniProt Q9P246)	0.499	0.0858	0.395	-0.123
SUGT1 C154 (UniProt Q9Y2Z0)	-0.0517	-0.0395	-0.573	-0.379
SRSF11 C455 (UniProt Q05519)	–	–	-0.167	0.173
SPTBN2 C1966 (UniProt O15020)	–	–	-0.103	-0.173
SPTLC1 C438 (UniProt O15269)	0.266	-0.169	0.717	-0.147
SRSF7 C119 (UniProt Q16629)	0.228	-0.191	0.193	-0.251

3 entries drawn at random from the list so far, as already listed:
Target	log2 mean competition ratio ([1]; 50 µM)	log2 mean competition ratio ([1]; 200 µM)	log2 mean competition ratio ([2]; 50 µM)	log2 mean competition ratio ([2]; 200 µM)
SPRTN C205 (UniProt Q9H040)	-0.0388	-0.0818	-0.0358	-0.231
SRSF7 C119 (UniProt Q16629)	0.228	-0.191	0.193	-0.251
SYNJ2 C708 (UniProt O15056)	-0.222	-0.177	-0.225	-0.165

Following part.

Target	log2 mean competition ratio ([1]; 50 µM)	log2 mean competition ratio ([1]; 200 µM)	log2 mean competition ratio ([2]; 50 µM)	log2 mean competition ratio ([2]; 200 µM)
SPG7 C627 (UniProt Q9UQ90)	0.146	0.085	-0.0789	-0.0176
SYNE1 C8703 (UniProt Q8NF91)	–	–	0.631	-0.202
STK31 C563	–	–	0.127	0.0232
SPTBN2 C1474 (UniProt O15020)	–	–	0.413	0.0615
SUPT20H C255 (UniProt Q8NEM7)	-0.321	0.284	-0.647	0.123
SPEN C1238 (UniProt Q96T58)	–	–	0.0174	0.369
SSX2IP C547 (UniProt Q9Y2D8)	–	0.299	-0.0428	-0.0558
SUCO C315 (UniProt Q9UBS9)	0.0961	0.0339	-0.261	0.299
SRA1 C122 (UniProt Q9HD15)	0.00214	0.088	0.271	0.0875
STXBP4 C411 (UniProt Q6ZWJ1)	–	–	-0.249	0.1
SRPRB C73 (UniProt Q9Y5M8)	–	–	-0.0138	0.162
STAG2 C711 (UniProt Q8N3U4)	–	–	0.18	0.115
STRN C765 (UniProt O43815)	–	–	0.106	-0.109
SRBD1 C165 (UniProt Q8N5C6)	–	–	0.618	0.0489
STRBP C83 (UniProt Q96SI9)	-0.0243	-0.21	0.065	-0.0575
SPTAN1 C315 (UniProt Q13813)	–	–	0.238	-0.196
SYNE2 C553 (UniProt Q8WXH0)	–	–	-0.185	0.0964
SPG11 C1019 (UniProt Q96JI7)	–	-0.755	-0.577	-0.187
STAT2 C676 (UniProt P52630)	-0.314	-0.417	-0.52	0.155
SUMF2 C290 (UniProt Q8NBJ7)	–	–	0.172	0.536
SRP68 C344 (UniProt Q9UHB9)	–	–	0.0528	0.185
STK33 C467 (UniProt Q9BYT3)	–	–	0.273	-0.0134
SPTAN1 C1314 (UniProt Q13813)	-0.0512	0.17	0.28	-0.0619
STRAP C340 (UniProt Q9Y3F4)	-0.0944	-0.259	0.0561	-0.0277
STIM2 C426 (UniProt Q9P246)	–	–	0.157	-0.236
SUGP2 C970 (UniProt Q8IX01)	-0.0502	0.246	0.00119	0.204

Target	log2 mean competition ratio ([1]; 50 µM)	log2 mean competition ratio ([1]; 200 µM)	log2 mean competition ratio ([2]; 50 µM)	log2 mean competition ratio ([2]; 200 µM)
SPAST C448 (UniProt Q9UBP0)	–	–	0.267	-0.0283
SRSF5 C63 (UniProt Q13243)	–	–	-0.174	0.327
SRRM2 C1016 (UniProt Q9UQ35)	0.103	0.0466	0.0269	0.128
STK26 C392 (UniProt Q9P289)	–	–	-0.0185	-0.113
SRRM2 C1480 (UniProt Q9UQ35)	–	–	-0.16	0.27
SRP68 C173 (UniProt Q9UHB9)	0.0451	0.214	-0.022	0.208
SPTLC2 C188 (UniProt O15270)	–	–	-0.0691	-0.0602
STIM2 C313 (UniProt Q9P246)	–	–	0.000509	0.169
STBD1 C337 (UniProt O95210)	–	–	-0.303	-0.103
SRP72 C50 (UniProt O76094)	–	–	-0.576	0.0112
SYPL1 C193 (UniProt Q16563)	–	–	0.00587	-0.0825
SPTBN2 C1140 (UniProt O15020)	–	–	0.236	-0.0389
STIP1 C370	–	–	-0.128	-0.0777
STRN C665 (UniProt O43815)	–	–	0.221	-0.372
SPTLC1 C192 (UniProt O15269)	–	–	0.478	0.0458
SRSF9 C138 (UniProt Q13242)	–	–	-0.326	-0.138
SRPK1 C647 (UniProt Q96SB4)	–	–	-0.236	-0.0928
SRGAP2 C1020	–	–	0.141	-0.024
SYNE1 C7251 (UniProt Q8NF91)	–	–	0.0524	-0.00977
SRBD1 C502 (UniProt Q8N5C6)	–	–	0.266	0.379
SYNE2 C6739 (UniProt Q8WXH0)	–	–	-0.0117	0.112
SRPRB C100 (UniProt Q9Y5M8)	–	–	0.0722	-0.225
SRP68 C562 (UniProt Q9UHB9)	–	–	-0.0918	0.109
SPATS2L C185 (UniProt Q9NUQ6)	–	–	-0.451	-0.0358
SYNE2 C2935 (UniProt Q8WXH0)	–	–	-0.22	0.0406
